{"source": "PubChem BioAssay AID686937 (Drosophila RNAi Screening Center, 2013)", "screen": "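Knock-downs that reduce output of a secreted reporter enzyme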 (primary screen)", "system": "Drosophila S2 cells expressing secreted horseradish peroxidase", "knock-down reagent": "long dsRNA against Drosophila genes", "timing": "about 5.5 days (5 days dsRNA, then 12 h reporter induction)", "treatment": "reporter expression induced after 5 days of dsRNA, read 12 h later; inducer not stated", "measured": "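After 5 days of dsRNA and 12 h of reporter induction, medium peroxidase read by chemiluminescence and scored as per-plate z-score; higher values mean more reporter released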", "scale": "z-score: higher = more reporter secreted into medium", "note": "In all, the deposit lists about 23,000 reagents; shown is a random part of those that have a named target and a result. 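Reduced-secretion tags in replicate 1 do not always agree with the z-scores; no criterion for assigning the tags was given.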 A plus sign joins genes that one reagent is predicted to hit. Further read-outs or replicates are left out here. No sequences are given here. Not stated in the record: the amount of reagent."}
{"Gene": "speck", "DRSC id": "DRSC04608", "z-score, replicate 1": 0.11}
{"Gene": "Ran", "DRSC id": "DRSC20364", "z-score, replicate 1": -4.92, "phenotype, replicate 1": "reduced secretion"}
{"Gene": "CG7059", "DRSC id": "DRSC16187", "z-score, replicate 1": 0.29}
{"Gene": "CG16812", "DRSC id": "DRSC02519", "z-score, replicate 1": 0.7}
{"Gene": "CG31195", "DRSC id": "DRSC13440", "z-score, replicate 1": 0.14}
{"Gene": "CG18563", "DRSC id": "DRSC02676", "z-score, replicate 1": 0.6}
{"Gene": "CG42306 + Gint3", "DRSC id": "DRSC06934", "z-score, replicate 1": 0.21}
{"Gene": "CG9117", "DRSC id": "DRSC03141", "z-score, replicate 1": -0.11}
{"Gene": "CG30148", "DRSC id": "DRSC06391", "z-score, replicate 1": 0.74}
{"Gene": "CG30495", "DRSC id": "DRSC06703", "z-score, replicate 1": 0.3}
{"Gene": "CG9876", "DRSC id": "DRSC04586", "z-score, replicate 1": 0.16}
{"Gene": "CG32281", "DRSC id": "DRSC08236", "z-score, replicate 1": 0.25}
{"Gene": "Fer3 (48 related 3)", "DRSC id": "DRSC16133", "z-score, replicate 1": 0.34}
{"Gene": "Drsl4 (Drosomycin-like 4)", "DRSC id": "DRSC08034", "z-score, replicate 1": 0.06}
{"Gene": "ClC-a (Chloride channel-a)", "DRSC id": "DRSC14947", "z-score, replicate 1": 0.08}
{"Gene": "ClC-a (Chloride channel-a)", "DRSC id": "DRSC14948", "z-score, replicate 1": 0.23}
{"Gene": "ClC-a (Chloride channel-a)", "DRSC id": "DRSC16142", "z-score, replicate 1": 0.29}
{"Gene": "Golgin245 (Golgin-245)", "DRSC id": "DRSC04374", "z-score, replicate 1": 0.16}
{"Gene": "Golgin245 (Golgin-245)", "DRSC id": "DRSC22012", "z-score, replicate 1": 0.43, "phenotype, replicate 1": "reduced secretion"}
{"Gene": "side (sidestep)", "DRSC id": "DRSC14523", "z-score, replicate 1": 0.32}
{"Gene": "side (sidestep)", "DRSC id": "DRSC14716", "z-score, replicate 1": 0.25}
{"Gene": "side (sidestep)", "DRSC id": "DRSC14717", "z-score, replicate 1": 0.3}
{"Gene": "side (sidestep)", "DRSC id": "DRSC14718", "z-score, replicate 1": 0.27}
{"Gene": "side (sidestep)", "DRSC id": "DRSC14721", "z-score, replicate 1": 0.52}

Only “z-score, replicate 1” (3 entries from above):
CG32281 [DRSC08236] = 0.25
Fer3 (48 related 3) [DRSC16133] = 0.34
Drsl4 (Drosomycin-like 4) [DRSC08034] = 0.06

More results follow:
{"Gene": "CG33203", "DRSC id": "DRSC14874", "z-score, replicate 1": 0.29}
{"Gene": "CG33203", "DRSC id": "DRSC14876", "z-score, replicate 1": 0.26}
{"Gene": "CG33203", "DRSC id": "DRSC14877", "z-score, replicate 1": 0.29}
{"Gene": "CG8850", "DRSC id": "DRSC07287", "z-score, replicate 1": 0.34}
{"Gene": "cv (crossveinless)", "DRSC id": "DRSC17833", "z-score, replicate 1": 0.28}
{"Gene": "CG43386", "DRSC id": "DRSC17980", "z-score, replicate 1": 0.33}
{"Gene": "BigH1 (Histone H1 variant BigH1)", "DRSC id": "DRSC15491", "z-score, replicate 1": 0.21}
{"Gene": "CG4452", "DRSC id": "DRSC10422", "z-score, replicate 1": 0.03}
{"Gene": "Ubr3 (Ubr3 ubiquitin ligase)", "DRSC id": "DRSC17987", "z-score, replicate 1": 0.22}
{"Gene": "Ubr3 (Ubr3 ubiquitin ligase)", "DRSC id": "DRSC17997", "z-score, replicate 1": 0.18}
{"Gene": "CG15019", "DRSC id": "DRSC08473", "z-score, replicate 1": 0.18}
{"Gene": "CG7465", "DRSC id": "DRSC08592", "z-score, replicate 1": 0.35}
{"Gene": "CG7465", "DRSC id": "DRSC22320", "z-score, replicate 1": -0.92}
{"Gene": "CG5404", "DRSC id": "DRSC15793", "z-score, replicate 1": 0.23}
{"Gene": "CG3213", "DRSC id": "DRSC00576", "z-score, replicate 1": -1.87, "phenotype, replicate 1": "reduced secretion"}
{"Gene": "REG (Proteasome regulator gamma)", "DRSC id": "DRSC20273", "z-score, replicate 1": 0.26}
